Experimental data as given in US12502414B2, “Second generation Seneca Valley virus oncolytic therapy: compositions and methods thereof” (SENECA THERAPEUTICS, INC., priority 2019, dated 2025).

Tested on: SVV replication in Per.C6 cells
Assay: SVV replication in Per.C6 cells with or without IFN-α pretreatment, virus yield by plaque assay
Format: cell-based, human
Settings: Per.C6 cells pretreated with 500 units IFN-α, SVV MOI 1, 300 nM SSP added at time 0, 24 h post infection
Experimental: FIG. 1 is a histogram depicting the inhibition of SVV replication by IFN-α. Per.C6 cells were pretreated with 500 units IFN-α before infection with SVV at MOI=1. Virus yields were determined by plaque assay 24 h post infection. The results are representative of 3 independent experiments.
FIGS. 2A-2B are series of histogram depicting the effect of staurosporine on SVV replication. FIG. 2A. SVV replication in HeLa cells can be enhanced with staurosporine (SSP). FIG. 2B. Inhibition of SVV replication by IFN-α can be reversed with SSP in Per.C6 cells. TEM 8+ HeLa cells or Per.C6 cells were pretreated with 500 units IFN-α before infection with SVV at MOI 1. 300 nM SSP was added at time 0. Virus yields determined by plaque assay 24 h post infection. Results are representative of three independent experiments.
FIGS. 3A-3B are series of histogram depicting the effect of Trichostatin A on SVV replication. FIG. 3A. SVV replication in HeLa cells can be enhanced with Trichostatin A. FIG. 3B. […] Virus yields determined by plaque assay 24 h post infection. […]
FIGS. 4A-4B are series of histogram depicting the effect of Torin 2 A on SVV replication. […] Virus yields determined by plaque assay 24 h post infection. […]
Virus infections. […] Cells were counted at the time of infection and viral stocks were diluted in PBS+0.01% BSA (Sigma, St. Louis, MO) for infections at the appropriate MOI. […]

## CN[C@@H]1C[C@H]2O[C@@](C)([C@@H]1OC)n1c3ccccc3c3c4c(c5c6ccccc6n2c5c31)C(=O)NC4 [staurosporine]
  effect on inhibition of SVV replication by IFN-α: reversed the inhibitory effect of IFN-α on SVV replication
